The other results are listed elsewhere or left out.
Key:
Assay in all cases: log2 fold change, soluble protein after heating vs DMSO (PISA); higher = thermal stabilisation; K562 cells, 10 uM, 30 min; active = over 0.2 and 3.5 SD of the protein, either way, in both replicates (recomputed)
[1] = compound: CS(=O)(=O)c1ccc(-c2cnc(N)c(C(=O)Nc3ccccc3)n2)cc1
Procedure, shortened: (§1)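 K562 cells at 2×10^6 cells/mL were treated with 10 μM compound for 30 min. Aliquots were heated for 3 min across 48°C-58°C, pooled, and extracted in PBS with 0.5% NP-40 at 4°C; soluble protein was the supernatant after 21,000xg for 90 min. Soluble protein was quantified by TMTpro 16plex LC-MS/MS with channel sums equalised, and reported as log2 fold change in thermal stability against DMSO controls, with values from duplicates.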

By UniProt entry, the sequences of proteins in these tests, tags left out. Where a name states a change or a piece, a line headed by the entry shows the natural chain unless it says otherwise.
UniProt Q9H9H4: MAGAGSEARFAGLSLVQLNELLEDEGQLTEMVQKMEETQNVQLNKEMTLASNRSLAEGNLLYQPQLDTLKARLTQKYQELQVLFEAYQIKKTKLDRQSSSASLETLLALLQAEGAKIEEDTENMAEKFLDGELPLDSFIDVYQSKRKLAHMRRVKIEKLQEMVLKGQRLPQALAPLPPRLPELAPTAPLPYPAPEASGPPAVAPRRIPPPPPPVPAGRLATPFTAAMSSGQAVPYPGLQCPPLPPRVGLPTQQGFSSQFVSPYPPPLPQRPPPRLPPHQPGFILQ
UniProt Q5JSD2: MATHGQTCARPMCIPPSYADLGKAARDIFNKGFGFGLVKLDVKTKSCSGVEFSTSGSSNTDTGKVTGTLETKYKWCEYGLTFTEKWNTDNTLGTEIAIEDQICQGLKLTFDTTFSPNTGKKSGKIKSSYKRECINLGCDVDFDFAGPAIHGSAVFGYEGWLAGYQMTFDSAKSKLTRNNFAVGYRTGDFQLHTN
WASHC2C, A0A096LPC5, UniProt A0A096LPC5, whole entry, looked up: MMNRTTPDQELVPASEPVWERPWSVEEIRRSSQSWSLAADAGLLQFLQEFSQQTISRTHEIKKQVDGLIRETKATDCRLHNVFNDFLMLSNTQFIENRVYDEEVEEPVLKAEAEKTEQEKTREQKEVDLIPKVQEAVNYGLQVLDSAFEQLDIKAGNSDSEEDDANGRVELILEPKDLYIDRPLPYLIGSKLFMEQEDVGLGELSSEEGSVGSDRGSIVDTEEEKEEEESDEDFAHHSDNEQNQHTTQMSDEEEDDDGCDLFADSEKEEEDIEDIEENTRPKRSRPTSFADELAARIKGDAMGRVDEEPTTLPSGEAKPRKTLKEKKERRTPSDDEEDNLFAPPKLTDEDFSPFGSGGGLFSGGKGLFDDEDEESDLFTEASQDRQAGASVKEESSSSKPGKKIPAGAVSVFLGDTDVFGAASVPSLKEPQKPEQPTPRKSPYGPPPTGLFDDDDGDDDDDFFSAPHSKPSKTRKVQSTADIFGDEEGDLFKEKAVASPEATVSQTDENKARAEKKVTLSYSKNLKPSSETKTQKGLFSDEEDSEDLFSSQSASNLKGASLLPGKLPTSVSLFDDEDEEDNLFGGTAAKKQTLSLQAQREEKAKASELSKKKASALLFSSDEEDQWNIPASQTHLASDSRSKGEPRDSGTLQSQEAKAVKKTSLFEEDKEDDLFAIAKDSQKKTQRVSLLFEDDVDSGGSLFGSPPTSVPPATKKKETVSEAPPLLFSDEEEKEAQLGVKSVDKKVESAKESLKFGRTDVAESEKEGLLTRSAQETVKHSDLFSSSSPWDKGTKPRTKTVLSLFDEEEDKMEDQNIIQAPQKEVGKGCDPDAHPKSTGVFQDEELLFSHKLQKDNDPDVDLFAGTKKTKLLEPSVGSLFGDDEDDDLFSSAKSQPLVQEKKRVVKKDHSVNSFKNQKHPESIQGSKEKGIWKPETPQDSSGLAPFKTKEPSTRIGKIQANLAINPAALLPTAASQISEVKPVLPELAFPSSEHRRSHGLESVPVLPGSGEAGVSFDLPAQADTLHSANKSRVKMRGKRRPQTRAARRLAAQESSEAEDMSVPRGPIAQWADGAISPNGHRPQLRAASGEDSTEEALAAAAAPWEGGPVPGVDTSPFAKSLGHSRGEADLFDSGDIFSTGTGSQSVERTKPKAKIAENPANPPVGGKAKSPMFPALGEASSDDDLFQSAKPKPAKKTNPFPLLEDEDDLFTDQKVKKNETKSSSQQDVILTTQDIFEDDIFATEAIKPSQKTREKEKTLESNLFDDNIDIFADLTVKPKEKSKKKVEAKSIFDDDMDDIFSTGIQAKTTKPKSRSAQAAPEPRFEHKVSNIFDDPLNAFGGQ
UniProt P40337, whole entry, looked up: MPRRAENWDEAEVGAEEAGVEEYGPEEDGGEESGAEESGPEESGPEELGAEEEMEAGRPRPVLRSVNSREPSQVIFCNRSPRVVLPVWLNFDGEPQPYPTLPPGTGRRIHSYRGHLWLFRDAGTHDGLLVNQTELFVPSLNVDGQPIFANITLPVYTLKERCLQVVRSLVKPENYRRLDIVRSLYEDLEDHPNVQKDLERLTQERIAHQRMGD
UniProt O00258: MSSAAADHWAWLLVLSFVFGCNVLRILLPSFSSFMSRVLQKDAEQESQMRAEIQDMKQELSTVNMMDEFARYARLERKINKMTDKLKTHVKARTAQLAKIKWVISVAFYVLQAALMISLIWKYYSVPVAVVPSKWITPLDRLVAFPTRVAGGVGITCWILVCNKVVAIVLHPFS
UniProt P98170, whole entry, looked up: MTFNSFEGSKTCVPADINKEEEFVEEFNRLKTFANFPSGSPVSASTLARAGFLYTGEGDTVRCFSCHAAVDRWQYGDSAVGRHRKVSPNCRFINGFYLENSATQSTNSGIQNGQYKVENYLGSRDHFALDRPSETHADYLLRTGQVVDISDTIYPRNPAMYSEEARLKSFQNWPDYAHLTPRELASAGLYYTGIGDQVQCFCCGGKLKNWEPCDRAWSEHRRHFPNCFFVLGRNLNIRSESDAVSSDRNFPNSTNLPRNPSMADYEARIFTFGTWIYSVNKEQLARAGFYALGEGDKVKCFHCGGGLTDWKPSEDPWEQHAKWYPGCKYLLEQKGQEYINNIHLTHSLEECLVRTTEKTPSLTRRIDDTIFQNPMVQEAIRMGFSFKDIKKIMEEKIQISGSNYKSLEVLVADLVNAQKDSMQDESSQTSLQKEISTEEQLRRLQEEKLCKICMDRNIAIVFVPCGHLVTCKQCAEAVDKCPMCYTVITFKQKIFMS
UniProt P57081: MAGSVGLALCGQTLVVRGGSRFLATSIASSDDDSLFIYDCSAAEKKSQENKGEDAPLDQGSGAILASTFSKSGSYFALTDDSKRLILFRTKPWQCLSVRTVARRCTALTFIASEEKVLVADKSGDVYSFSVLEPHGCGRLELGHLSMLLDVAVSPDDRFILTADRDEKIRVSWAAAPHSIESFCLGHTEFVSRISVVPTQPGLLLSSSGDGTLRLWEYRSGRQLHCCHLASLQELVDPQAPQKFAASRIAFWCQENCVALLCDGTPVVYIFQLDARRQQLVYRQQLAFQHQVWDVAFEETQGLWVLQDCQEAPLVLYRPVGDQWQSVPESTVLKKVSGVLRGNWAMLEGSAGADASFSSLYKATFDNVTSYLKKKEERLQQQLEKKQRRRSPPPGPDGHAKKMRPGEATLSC
UniProt Q15906, whole entry, looked up: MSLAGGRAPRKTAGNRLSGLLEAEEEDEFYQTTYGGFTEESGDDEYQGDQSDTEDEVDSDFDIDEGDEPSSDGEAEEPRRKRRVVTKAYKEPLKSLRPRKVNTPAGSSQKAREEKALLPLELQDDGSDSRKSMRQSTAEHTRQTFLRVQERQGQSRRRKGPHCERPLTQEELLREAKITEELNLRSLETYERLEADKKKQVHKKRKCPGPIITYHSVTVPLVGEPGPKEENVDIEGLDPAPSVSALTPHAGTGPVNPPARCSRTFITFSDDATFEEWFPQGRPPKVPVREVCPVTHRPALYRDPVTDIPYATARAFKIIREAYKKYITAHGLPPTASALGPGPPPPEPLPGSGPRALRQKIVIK
UniProt Q3ZAQ7: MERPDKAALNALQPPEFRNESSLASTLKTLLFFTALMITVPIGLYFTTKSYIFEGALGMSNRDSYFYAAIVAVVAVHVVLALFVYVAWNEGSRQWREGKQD
UniProt A5D8V6: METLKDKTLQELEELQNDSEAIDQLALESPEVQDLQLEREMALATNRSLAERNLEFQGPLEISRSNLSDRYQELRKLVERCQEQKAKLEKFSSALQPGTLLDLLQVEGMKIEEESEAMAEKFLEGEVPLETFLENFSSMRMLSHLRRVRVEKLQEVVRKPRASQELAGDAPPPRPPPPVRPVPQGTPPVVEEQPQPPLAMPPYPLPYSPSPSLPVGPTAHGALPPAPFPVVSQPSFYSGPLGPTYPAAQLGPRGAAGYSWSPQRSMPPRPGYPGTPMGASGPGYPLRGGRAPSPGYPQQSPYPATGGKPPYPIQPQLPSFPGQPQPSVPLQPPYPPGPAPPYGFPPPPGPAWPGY
UniProt Q96P53: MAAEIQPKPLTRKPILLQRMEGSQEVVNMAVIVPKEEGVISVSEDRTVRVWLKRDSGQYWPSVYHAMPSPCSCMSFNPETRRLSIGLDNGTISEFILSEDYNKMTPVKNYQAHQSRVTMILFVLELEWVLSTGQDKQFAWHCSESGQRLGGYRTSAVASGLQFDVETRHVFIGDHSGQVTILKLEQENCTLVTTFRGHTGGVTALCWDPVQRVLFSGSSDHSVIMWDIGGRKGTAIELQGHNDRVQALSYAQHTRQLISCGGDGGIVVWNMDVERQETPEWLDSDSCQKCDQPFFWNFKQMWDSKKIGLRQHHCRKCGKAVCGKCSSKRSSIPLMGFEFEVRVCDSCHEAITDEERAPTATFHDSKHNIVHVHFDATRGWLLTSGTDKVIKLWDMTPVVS
UniProt O15240: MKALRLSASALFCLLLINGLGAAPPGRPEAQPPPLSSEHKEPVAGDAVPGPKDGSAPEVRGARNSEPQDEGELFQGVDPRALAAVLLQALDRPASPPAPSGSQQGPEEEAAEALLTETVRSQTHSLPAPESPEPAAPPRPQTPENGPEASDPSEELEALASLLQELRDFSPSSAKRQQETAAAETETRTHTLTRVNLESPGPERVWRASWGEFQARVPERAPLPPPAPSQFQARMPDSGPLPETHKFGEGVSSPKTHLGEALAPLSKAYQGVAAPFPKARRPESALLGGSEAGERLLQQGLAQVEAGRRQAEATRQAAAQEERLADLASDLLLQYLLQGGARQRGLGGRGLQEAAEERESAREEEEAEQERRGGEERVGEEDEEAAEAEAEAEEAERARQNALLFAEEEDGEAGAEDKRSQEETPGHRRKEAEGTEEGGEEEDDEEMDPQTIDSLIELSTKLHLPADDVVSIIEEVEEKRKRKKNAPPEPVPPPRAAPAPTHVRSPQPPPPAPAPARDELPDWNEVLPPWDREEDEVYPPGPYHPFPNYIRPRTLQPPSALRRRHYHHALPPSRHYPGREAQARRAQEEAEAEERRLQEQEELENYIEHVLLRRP
UniProt Q9BTA9: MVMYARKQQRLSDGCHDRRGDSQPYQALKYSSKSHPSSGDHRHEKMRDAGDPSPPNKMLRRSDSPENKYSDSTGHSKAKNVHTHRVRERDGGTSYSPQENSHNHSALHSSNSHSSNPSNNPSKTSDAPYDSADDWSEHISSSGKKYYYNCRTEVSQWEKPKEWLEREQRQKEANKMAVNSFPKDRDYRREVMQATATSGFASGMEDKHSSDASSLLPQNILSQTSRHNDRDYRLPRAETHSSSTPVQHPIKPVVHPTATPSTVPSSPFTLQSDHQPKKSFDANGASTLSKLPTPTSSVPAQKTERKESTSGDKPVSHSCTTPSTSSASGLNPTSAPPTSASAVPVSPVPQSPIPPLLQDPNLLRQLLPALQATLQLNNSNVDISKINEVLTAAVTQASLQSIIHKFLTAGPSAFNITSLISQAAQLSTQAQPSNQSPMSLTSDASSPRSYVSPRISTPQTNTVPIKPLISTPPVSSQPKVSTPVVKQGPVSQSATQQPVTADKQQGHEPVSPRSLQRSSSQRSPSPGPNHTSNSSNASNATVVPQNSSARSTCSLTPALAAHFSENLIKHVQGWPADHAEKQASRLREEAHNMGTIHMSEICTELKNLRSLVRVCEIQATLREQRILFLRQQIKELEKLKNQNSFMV
UniProt Q9H967: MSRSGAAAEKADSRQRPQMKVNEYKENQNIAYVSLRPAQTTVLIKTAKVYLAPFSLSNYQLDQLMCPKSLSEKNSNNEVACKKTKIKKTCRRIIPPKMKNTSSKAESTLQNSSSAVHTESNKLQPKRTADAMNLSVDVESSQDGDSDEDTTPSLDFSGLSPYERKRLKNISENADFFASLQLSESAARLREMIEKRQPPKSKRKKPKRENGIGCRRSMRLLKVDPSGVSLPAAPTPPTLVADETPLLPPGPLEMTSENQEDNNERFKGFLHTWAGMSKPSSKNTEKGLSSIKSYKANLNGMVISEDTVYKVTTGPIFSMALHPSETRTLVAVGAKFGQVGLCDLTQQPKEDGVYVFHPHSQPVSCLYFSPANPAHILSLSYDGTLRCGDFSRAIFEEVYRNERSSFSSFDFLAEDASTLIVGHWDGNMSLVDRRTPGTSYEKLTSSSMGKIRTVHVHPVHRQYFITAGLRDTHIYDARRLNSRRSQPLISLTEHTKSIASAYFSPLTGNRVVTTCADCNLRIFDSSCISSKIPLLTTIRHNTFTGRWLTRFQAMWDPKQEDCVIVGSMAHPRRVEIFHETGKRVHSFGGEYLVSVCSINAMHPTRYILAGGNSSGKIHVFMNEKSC
UniProt Q9H867: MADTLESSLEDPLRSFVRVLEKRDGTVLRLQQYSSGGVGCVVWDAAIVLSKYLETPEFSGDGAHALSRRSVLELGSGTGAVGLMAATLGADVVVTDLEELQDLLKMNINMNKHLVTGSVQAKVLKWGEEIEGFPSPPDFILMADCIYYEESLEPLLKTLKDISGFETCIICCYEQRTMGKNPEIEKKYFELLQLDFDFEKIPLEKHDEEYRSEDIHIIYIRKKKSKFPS

[2] = compound: C[C@@H](Oc1cc(-c2cnn(C3CCNCC3)c2)cnc1N)c1c(Cl)ccc(F)c1Cl [crizotinib]
Procedure, shortened: as §1

[3] = compound: C[C@@H]1COCCN1C2=NC(=NC(=C2)C3(CC3)S(=O)(=O)C)C4=C5C=CNC5=CC=C4
Procedure, shortened: as §1

[4] = compound: C[C@H](C1=CC=C(C=C1)C(=O)NC2=C3C=CNC3=NC=C2)N
Procedure, shortened: as §1

[5] = compound: Cc1cc(Nc2cc(CN3CCOCC3)c3nc(C)c(Cc4ccc(Cl)cc4F)n3n2)n[nH]1 [gandotinib]
Procedure, shortened: as §1

[6] = compound: Cc1cc(SCc2sc(-c3ccc(C(F)(F)F)cc3)nc2C)ccc1OCC(=O)O
Procedure, shortened: as §1

[7] = compound: Cc1ccc(-n2nc(C(C)(C)C)cc2NC(=O)Nc2ccc(OCCN3CCOCC3)c3ccccc23)cc1 [doramapimod]
Procedure, shortened: as §1

[8] = compound: Cc1ccc(C(=O)N(CCCN)[C@@H](c2nc3cc(Cl)ccc3c(=O)n2Cc2ccccc2)C(C)C)cc1 [ispinesib]
Procedure, shortened: as §1

[9] = compound: Cc1ccc(NC(=O)c2ccc(CN3CC[C@H](N(C)C)C3)c(C(F)(F)F)c2)cc1Nc1nccc(-c2cncnc2)n1 [bafetinib]
Procedure, shortened: as §1

[10] = compound: Cc1cccc(CC(=O)N2CCc3c2ccc(-c2cn(C)c4ncnc(N)c24)c3F)n1
Procedure, shortened: as §1

[11] = compound: Cc1cn(-c2cc(NC(=O)c3ccc(C)c(Nc4nccc(-c5cccnc5)n4)c3)cc(C(F)(F)F)c2)cn1 [nilotinib]
Procedure, shortened: as §1

[12] = compound: Cc1nc(Nc2n[nH]c3c2CN(C(=O)N[C@H](CN(C)C)c2ccccc2)C3(C)C)c2sccc2n1
Procedure, shortened: as §1

[13] = compound: Cc1nc(Nc2ncc(C(=O)Nc3c(C)cccc3Cl)s2)cc(N2CCN(CCO)CC2)n1 [dasatinib]
Procedure, shortened: as §1

[14] = compound: Cc1ncc(-c2ccnc(Nc3ccc(S(C)(=O)=O)cc3)n2)n1C(C)C
Procedure, shortened: as §1

[15] = compound: Cn1cc(-c2ccc3c(c2)CCN3C(=O)Cc2cccc(C(F)(F)F)c2)c2c(N)ncnc21
Procedure, shortened: as §1

[16] = compound: Cn1cc(-c2ccc3nnc(C(F)(F)c4ccc5ncccc5c4)n3n2)cn1
Procedure, shortened: as §1

[17] = compound: Cn1cncc1[C@@](N)(c1ccc(Cl)cc1)c1ccc2c(c1)c(-c1cccc(Cl)c1)cc(=O)n2C [tipifarnib]
Procedure, shortened: as §1

[18] = compound: FC(F)(F)c1ccc(/C=C/c2nc(COc3ccc(CCCCn4ccnn4)cc3)co2)cc1 [mubritinib]
Procedure, shortened: as §1

[19] = compound: C[C@H](Nc1ncnc2nc[nH]c12)c1cc2cccc(Cl)c2c(=O)n1-c1ccccc1 [duvelisib]
Procedure, shortened: as §1

[20] = compound: Cc1cc(Nc2cc(N3CCN(C)CC3)nc(Sc3ccc(NC(=O)C4CC4)cc3)n2)n[nH]1 [tozasertib]
Procedure, shortened: as §1

Measured: log2 fold change

VPS13B (UniProt Q7Z7G8)
inactive: [1] 0.023 | [2] 0.015 | [3] 0.045 | [4] -0.033 | [5] -0.062 | [6] 0.015 | [7] 0.028 | [8] -0.134 | [9] -0.075 | [10] -0.012 | [11] -0.005 | [12] 0.049 | [13] 0.047 | [14] -0.004 | [15] 0.005 | [16] 0.029 | [17] 0.037 | [18] 0.01

VPS37B (UniProt Q9H9H4)
inactive: [1] 0.095 | [2] -0.019 | [3] 0.147 | [19] 0.072 | [5] -0.153 | [20] 0.028 | [6] 0.011 | [7] -0.038 | [8] -0.036 | [9] -0.036 | [10] 0.055 | [11] -0.078 | [12] -0.074 | [13] -0.034 | [14] 0.007 | [16] -0.005 | [17] -0.131 | [18] 0.032

VDAC2 (UniProt Q5JSD2)
inactive: [1] 0.006 | [3] -0.063 | [5] -0.205 | [9] -0.165 | [10] -0.216 | [11] -0.065 | [12] 0.046 | [14] -0.001 | [17] 0.298 | [18] 0.02

WASHC2C, A0A096LPC5
inactive: [1] -0.078 | [2] -0.363 | [3] 0.031 | [4] 0.025 | [5] 0.189 | [6] -0.053 | [7] 0.02 | [8] -0.135 | [9] -0.144 | [10] -0.335 | [11] 0.093 | [12] -0.101 | [13] 0.13 | [14] -0.003 | [15] -0.016 | [16] -0.082 | [17] 0.283 | [18] 0.123

VHL (UniProt P40337)
inactive: [1] -0.122 | [4] -0.056 | [19] 0.228 | [6] 0.19 | [8] -0.061 | [13] -0.196 | [15] 0.101 | [16] -0.028

VKORC1 (UniProt Q9BQB6)
inactive: [1] 0.012 | [4] -0.032 | [5] -0.116 | [6] 0.106 | [7] 0.033 | [8] -0.108 | [9] -0.062 | [10] 0.045 | [11] -0.008 | [12] 0.013 | [13] -0.049 | [14] -0.013 | [15] 0.105 | [16] 0.081 | [17] 0 | [18] 0.035
active: [2] 0.494

WARS1 (UniProt G3V5U1)
inactive: [1] 0.092 | [2] 0.09 | [3] -0.282 | [7] -0.299 | [9] -0.569 | [18] -0.161

WRB (UniProt O00258)
inactive: [1] -0.031 | [2] 0.057 | [3] 0.036 | [4] -0.028 | [5] -0.053 | [6] 0.067 | [7] 0.015 | [8] 0.029 | [9] -0.072 | [10] -0.011 | [11] 0.015 | [12] 0.005 | [13] 0.031 | [14] -0.036 | [15] -0.011 | [16] 0.089 | [17] 0.024 | [18] 0.052

WDR46 (UniProt O15213)
inactive: [1] -0.05 | [2] 0.008 | [3] -0.731 | [4] 0.445 | [5] 0.27 | [6] 0.032 | [7] 0.142 | [8] -0.081 | [9] 0.251 | [10] -0.026 | [11] -0.055 | [12] 0.117 | [13] 0.364 | [14] 0.096 | [15] -0.376 | [16] -0.187 | [17] 0.084 | [18] -0.093

XIAP (UniProt P98170)
inactive: [1] 0.125 | [3] 0.092 | [4] -0.09 | [5] 0.061 | [6] -0.036 | [9] -0.111 | [10] -0.046 | [11] 0.366 | [12] 0.061 | [13] -0.027 | [14] -0.288 | [15] 0.029 | [17] -0.078 | [18] 0.095

WDR4 isoform 3 (UniProt P57081)
inactive: [1] 0.074 | [3] 0.125 | [5] -0.247 | [9] 0.125 | [10] 0.057

WDR46, A0A0G2JJL1
inactive: [1] -0.119 | [2] 0.086 | [3] -0.581 | [6] -0.125 | [7] 0.236 | [9] 0.339 | [11] -0.094 | [12] 0.202 | [13] 0.381 | [14] 0.105 | [17] 0.171 | [18] -0.051

VPS72 isoform 2 (UniProt Q15906)
inactive: [1] -0.041 | [3] 0.093 | [4] 0.196 | [6] -0.021 | [8] 0.218 | [9] -0.064 | [11] 0.086 | [12] 0.02 | [13] 0.044 | [14] -0.024 | [15] -0.052 | [16] 0.08 | [17] 0.074 | [18] 0.009

VIPAS39 (UniProt Q9H9C1)
inactive: [1] -0.097 | [4] 0.045 | [19] -0.229 | [20] 0.006 | [6] 0.237 | [9] 0.084 | [11] -0.16 | [12] -0.225 | [13] -0.446 | [14] -0.291 | [15] 0.022 | [17] -0.277 | [18] 0.01

WARS1 (UniProt G3V339)
inactive: [3] -0.123

WDR91 (UniProt A4D1P6)
inactive: [2] 0.006 | [3] -0.109 | [4] 0.083 | [19] 0 | [20] 0.171 | [6] 0.036 | [7] 0.08 | [8] -0.404 | [9] 0.193 | [13] -0.685 | [15] -0.098 | [16] -0.252 | [17] 0.108 | [18] 0.097

VMA21 isoform 2 (UniProt Q3ZAQ7)
inactive: [2] 0.036 | [3] 0.264 | [4] -0.134 | [19] -0.315 | [5] 0.125 | [20] -0.03 | [6] -0.201 | [7] -0.085 | [9] -0.107 | [10] 0.074 | [11] 0.174 | [12] -0.082 | [13] 0.145 | [14] 0.027 | [15] 0.032 | [17] -0.198 | [18] 0.034

VPS37C (UniProt A5D8V6)
inactive: [2] -0.096 | [3] 0.105 | [4] 0.034 | [19] 0.063 | [5] -0.016 | [20] 0.027 | [6] 0.042 | [7] 0.054 | [9] -0.076 | [10] -0.024 | [11] 0 | [12] -0.003 | [13] -0.071 | [14] 0.014 | [15] -0.029 | [17] 0.015 | [18] 0.053

WARS1 (UniProt G3V227)
inactive: [3] -0.024 | [4] 0.147 | [6] -0.015 | [9] 0 | [13] -0.164 | [15] -0.42

WSB1 (UniProt Q9Y6I7)
inactive: [3] -0.229

WWP2 (UniProt O00308)
inactive: [2] -0.006 | [3] -0.003 | [7] 0.046

WDFY2 (UniProt Q96P53)
inactive: [19] -0.222 | [20] -0.031 | [6] 0.03 | [13] -0.034

WDR13, A0A087X091
inactive: [2] -0.027 | [7] -0.051 | [11] 0.127 | [12] -0.011 | [14] -0.023

VNN1 (UniProt O95497)
inactive: [4] 0.172 | [15] 0.034

WWOX (UniProt Q9NZC7)
inactive: [1] -0.068 | [4] -0.122 | [20] 0.027 | [15] 0.19 | [17] 0.045 | [18] -0.058

WNK4 (UniProt Q96J92)
inactive: [3] -0.134 | [20] 0.06

VPS13A isoform 4 (UniProt Q96RL7)
inactive: [20] 0.007 | [8] 0.026 | [16] -0.035 | [17] 0.148

WASF1 (UniProt Q92558)
inactive: [2] -0.047 | [3] 0.058 | [4] -0.033 | [19] 0.038 | [5] -0.025 | [20] 0.006 | [6] 0.154 | [7] -0.035 | [8] -0.079 | [9] -0.138 | [10] -0.031 | [11] -0.083 | [12] -0.091 | [13] -0.163 | [14] -0.015 | [15] 0.048 | [16] 0.004 | [17] -0.009 | [18] 0.106

VGF (UniProt O15240)
inactive: [9] 0.077 | [17] 0.139

WIPI2 isoform 6 (UniProt Q9Y4P8)
inactive: [4] -0.19 | [5] -0.443 | [9] 0.113 | [10] -0.071 | [15] 0.034 | [17] -0.018

WAC (UniProt Q9BTA9)
inactive: [2] -0.269 | [5] 0.01 | [7] 0.002 | [10] 0.064 | [17] -0.251

WDR76 (UniProt Q9H967)
inactive: [3] -0.053 | [17] -0.013

VCPKMT (UniProt Q9H867)
inactive: [20] 0.014

VEGFA (UniProt H0YBI8)
inactive: [2] 0.027 | [19] 0.175 | [20] 0.061 | [6] 0.002 | [7] 0.073 | [8] 0.133 | [9] 0.029 | [11] 0.398 | [12] -0.053 | [13] 0.292 | [14] 0.096 | [16] -0.172 | [17] -0.057 | [18] 0.115

Quoted from the listing (9 entries):
WWOX (UniProt Q9NZC7)
inactive: [1] -0.068 | [4] -0.122 | [20] 0.027 | [15] 0.19 | [17] 0.045 | [18] -0.058

WNK4 (UniProt Q96J92)
inactive: [3] -0.134 | [20] 0.06

VPS13A isoform 4 (UniProt Q96RL7)
inactive: [20] 0.007 | [8] 0.026 | [16] -0.035 | [17] 0.148

WASF1 (UniProt Q92558)
inactive: [2] -0.047 | [3] 0.058 | [4] -0.033 | [19] 0.038 | [5] -0.025 | [20] 0.006 | [6] 0.154 | [7] -0.035 | [8] -0.079 | [9] -0.138 | [10] -0.031 | [11] -0.083 | [12] -0.091 | [13] -0.163 | [14] -0.015 | [15] 0.048 | [16] 0.004 | [17] -0.009 | [18] 0.106

VGF (UniProt O15240)
inactive: [9] 0.077 | [17] 0.139

WIPI2 isoform 6 (UniProt Q9Y4P8)
inactive: [4] -0.19 | [5] -0.443 | [9] 0.113 | [10] -0.071 | [15] 0.034 | [17] -0.018

WAC (UniProt Q9BTA9)
inactive: [2] -0.269 | [5] 0.01 | [7] 0.002 | [10] 0.064 | [17] -0.251

WDR76 (UniProt Q9H967)
inactive: [3] -0.053 | [17] -0.013

VCPKMT (UniProt Q9H867)
inactive: [20] 0.014

— the supplement of paper PMC10849652
